{"sequences": {"note": "Amino acid sequences for entries named in this document (tags omitted).", "UniProt P09296": "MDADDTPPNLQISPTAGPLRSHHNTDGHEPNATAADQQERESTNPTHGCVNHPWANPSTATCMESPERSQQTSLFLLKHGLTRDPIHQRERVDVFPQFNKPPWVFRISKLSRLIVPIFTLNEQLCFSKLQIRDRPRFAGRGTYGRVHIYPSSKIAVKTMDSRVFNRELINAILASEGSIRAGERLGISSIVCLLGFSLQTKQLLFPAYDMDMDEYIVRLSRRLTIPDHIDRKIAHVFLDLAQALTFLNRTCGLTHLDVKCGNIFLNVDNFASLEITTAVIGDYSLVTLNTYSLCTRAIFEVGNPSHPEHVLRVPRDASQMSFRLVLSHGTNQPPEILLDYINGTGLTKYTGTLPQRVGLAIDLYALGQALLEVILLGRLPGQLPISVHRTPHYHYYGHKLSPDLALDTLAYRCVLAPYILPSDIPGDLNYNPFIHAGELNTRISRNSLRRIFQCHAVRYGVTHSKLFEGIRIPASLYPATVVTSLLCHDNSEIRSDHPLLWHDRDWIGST"}, "source": "paper PMC3036730", "molecules": {"B1": {"name": "V5-tagged IRF3 (protein, UniProt Q14653 1-427)", "chain": "MGTPKPRILPWLVSQLDLGQLEGVAWVNKSRTRFRIPWKHGLRQDAQQEDFGIFQAWAEATGAYVPGRDKPDLPTWKRNFRSALNRKEGLRLAEDRSKDPHDPHKIYEFVNSGVGDFSQPDTSPDTNGGGSTSDTQEDILDELLGNMVLAPLPDPGPPSLAVAPEPCPQPLRSPSLDNPTPFPNLGPSENPLKRLLVPGEEWEFEVTAFYRGRQVFQQTISCPEGLRLVGSEVGDRTLPGWPVTLPDPGMSLTDRGVMSYVRHVLSCLGGGLALWRAGQWLWAQRLGHCHTYWAVSEELLPNSGHGPDGEVPKDKEGGVFDLGPFIVDLITFTEGSGRSPRYALWFCVGESWPQDQPWTKRLVMVKVVPTCLRALVEMARVGGASSLENTVDLHISNSHPLSLTSDQYKAYLQDLVEGMDFQGPGES"}}, "key": {"[1]": {"biological_target": "T1, V5-tagged IRF3 (UniProt Q14653)", "T1 sequence": "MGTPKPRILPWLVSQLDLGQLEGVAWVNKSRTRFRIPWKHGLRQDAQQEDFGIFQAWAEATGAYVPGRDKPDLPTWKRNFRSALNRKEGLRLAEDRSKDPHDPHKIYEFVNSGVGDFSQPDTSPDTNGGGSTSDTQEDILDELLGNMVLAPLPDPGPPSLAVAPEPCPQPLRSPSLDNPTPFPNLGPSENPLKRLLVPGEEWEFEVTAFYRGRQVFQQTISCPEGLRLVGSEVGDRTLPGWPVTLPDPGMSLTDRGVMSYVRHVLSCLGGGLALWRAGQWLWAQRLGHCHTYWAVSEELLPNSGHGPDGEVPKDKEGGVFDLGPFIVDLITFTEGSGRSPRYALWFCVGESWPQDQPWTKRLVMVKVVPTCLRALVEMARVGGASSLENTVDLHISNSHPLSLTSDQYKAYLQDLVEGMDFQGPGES", "experiment": "co-IP; HEK-293 co-transfected with HA-ORF47 and V5-IRF3, 24 h later infected or not with VZV ROka47S for 24 h; IRF3 immunoprecipitated from total extracts with anti-IRF3 overnight at 4°C, protein A-Agarose, five washes in NP-40 Wash Buffer; blot anti-HA"}, "[2]": {"biological_target": "HA-tagged ORF47 (Varicella-Zoster Virus ORF47 protein kinase) (Varicella-Zoster Virus) (UniProt P09296)", "experiment": "co-IP; data not shown; HA-ORF47 immunoprecipitated from total extracts of transfected HEK-293 with anti-HA; blot anti-IRF3"}}, "note": "No constants are given. Whether binding was seen depends on the method and setting. Binding seen in cells or lysates may run through a third protein. Some binding calls cover weakened binding; strength is not graded here. Tags and fused reporters may be left off the sequences shown.", "data": [{"molecule": "HA-tagged ORF47 (Varicella-Zoster Virus ORF47 protein kinase) (from UniProt P09296 1-510) (enzyme)", "values": [{"measurement": "binding", "setting": "[1]", "result": "binds"}]}, {"molecule": "B1", "values": [{"measurement": "binding", "setting": "[2]", "result": "binds"}]}]}
